Test results taken from publication PMC11374810.
No constants are given. Whether binding was seen depends on the method and setting. Binding seen in cells or lysates may run through a third protein. Here binding means that the protein was enriched with, or labelled near, the bait; the list need not be complete. Where a sequence is shown, tags or fusion partners need not be part of it.

Chains of the proteins cited; added tags and fusions are not shown.
UniProt P51150: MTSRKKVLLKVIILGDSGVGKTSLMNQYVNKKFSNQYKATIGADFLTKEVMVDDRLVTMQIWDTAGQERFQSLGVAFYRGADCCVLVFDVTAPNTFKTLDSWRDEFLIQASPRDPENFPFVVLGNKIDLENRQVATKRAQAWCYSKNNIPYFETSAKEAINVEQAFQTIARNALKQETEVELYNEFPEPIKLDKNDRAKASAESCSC

Target: T1, GFP-VPS4a^WT (UniProt Q9UN37)
T1 sequence: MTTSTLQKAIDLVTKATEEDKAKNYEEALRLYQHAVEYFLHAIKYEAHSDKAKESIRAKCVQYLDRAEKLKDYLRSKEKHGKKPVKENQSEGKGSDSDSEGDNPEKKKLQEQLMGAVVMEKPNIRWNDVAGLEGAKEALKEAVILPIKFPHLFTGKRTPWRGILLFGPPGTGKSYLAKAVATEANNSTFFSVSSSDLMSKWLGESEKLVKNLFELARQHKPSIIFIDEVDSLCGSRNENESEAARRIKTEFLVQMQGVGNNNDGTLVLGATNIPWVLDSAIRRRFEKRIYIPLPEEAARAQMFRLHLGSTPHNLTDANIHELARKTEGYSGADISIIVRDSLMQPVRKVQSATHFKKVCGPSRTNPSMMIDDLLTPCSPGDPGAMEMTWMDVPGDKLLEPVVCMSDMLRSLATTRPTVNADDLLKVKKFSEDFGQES
Assay: affinity purification with mass spectrometry; GFP-Trap agarose pulldown of GFP-VPS4a from lysates of sgControl or sgRNAseK cells cultured in AA-free DMEM for 3 h; PD buffer (150 mM NaCl, 20 mM Tris-HCl pH 7.5, 5 mM EDTA, 1% Triton-X), overnight at 4 °C; MS

With RAB7 (from UniProt P51150 1-207) the binding was “binds”.

In the case of Syntaxin17 (STX17), the binding is reported as “binds”.
